Measured values reported in PubChem BioAssay AID493014 (National Center for Advancing Translational Sciences (NCATS), 2011).
The other results are listed elsewhere or left out. These are further read-outs of the screen, such as a control signal, another cell line or another target. No call is given for them. The list favours compounds with an active or inconclusive main result. Words in brackets tell the shape of the fitted curve; partial curves, single points and poor fits give uncertain potencies.

Assay: qHTS Assay to Find Inhibitors of Chronic Active B-Cell Receptor Signaling
Settings: ABC-DLBCL IkBa-CBG/CBR reporter, luminescence ratio (green luciferase fused to IkBa over red control in TMD8 lymphoma cells), 4 h
Outline: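 TMD8 human ABC-DLBCL cells with doxycycline-inducible IκBα–green luciferase fusion and unfused red luciferase, in 0.5% FBS medium; compounds up to 46 uM, 4 h at 37C. Green/red luminescence ratio, filter-overlap corrected, fitted to concentration-response curves.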

[1] = measured here: CBR red luminescence, cell number
[2] = measured here: IkBa-CBG green luminescence

Row | Structure (SMILES) | AC50 [1] | AC50 [2]
1 | Cc1c(NC(=O)CSc2nnc(-c3ccncc3)o2)c(=O)n(-c2ccccc2)n1C | 10 µM [rising, partial curve, poor fit] | –
2 | CC(C)(C)c1ccc(-c2nnc(SCC(=O)Nc3sc4c(c3C#N)CCCC4)o2)cc1 | 5.8 µM [rising, full curve, poor fit] | –
3 | CCOC(=O)/C(C#N)=C/c1cn(CCOc2ccc(OC)cc2)c2ccccc12 | 0.103 µM [rising, full curve, poor fit] | –
4 | Cc1ccc(C(=O)N2CC(=O)Nc3ccc(F)cc3C2c2ccccc2)cc1 (centres undefined) | 7.08 µM [falling, partial curve, poor fit] | –
5 | CCOc1ccc(Oc2ccc(C(F)(F)F)cc2N)cc1 | 23.1 µM [rising, partial curve] | –
6 | Cc1cc(=O)n(-c2ccc(C(=O)O)cc2)[nH]1 | 3.98 µM [falling, partial curve] | –
7 | COc1ccc(NC(=O)Nc2ccc(C(C)C)cc2)cc1 | 8.91 µM [falling, partial curve, poor fit] | –
8 | C/C(=N\NC(=O)c1ccc([N+](=O)[O-])cc1)c1c(O)cc(C)oc1=O | 1.12 µM [rising, full curve, poor fit] | –
9 | Cc1cc(C)c2cc(CN(Cc3ccco3)C(=O)NCc3ccccc3)c(=O)[nH]c2c1 | 22.4 µM [falling, single point] | –
10 | CN(C(=O)CSc1nnc(NC2CCCCC2)s1)C1CCS(=O)(=O)C1 (centres undefined) | 29.1 µM [rising, single point] | –
11 | COc1ccc(C[C@@H]2CN3C(=NC[C@@H]3Cc3ccc(O)cc3)N2C[C@H](C)NC(=O)CCC2CCCCC2)cc1 | 10 µM [falling, partial curve, poor fit] | –
12 | O=C(O)c1cc(-c2ccccc2)nc2nc(N3CCCCC3)sc12 | 8.91 µM [rising, partial curve] | –
13 | COc1ccc(C(=O)c2cc([N+](=O)[O-])ccc2N2CCOCC2)cc1 | 9.2 µM [rising, partial curve] | 5.8 µM [falling, partial curve]
14 | OCCCNc1nnc(-c2ccccc2)c2ccccc12 | 3.98 µM [rising, partial curve, poor fit] | –
15 | O=C(NC1CC1)c1ccc2c(c1)N(Cc1ccc(Cl)cc1)CCS2 | 35.5 µM [falling, single point] | –
16 | O=c1cc(-c2ccccc2)nc2nc(SCc3ccccc3)[nH]n12 | 5.17 µM [falling, full curve] | –
17 | CCOc1ccc(NC(C)C(=O)N/N=C/c2cccs2)cc1 (centres undefined) | 29.1 µM [rising, single point] | –
18 | Cc1ccccc1-n1c(SCC(=O)c2c(N)n(C)c(=O)n(C)c2=O)nc2sc3c(c2c1=O)CCCC3 | 0.326 µM [rising, full curve, poor fit] | –
19 | O=C(O)CSc1nnc(COc2cccc3ccccc23)o1 | 35.5 µM [falling, single point] | –
20 | CCOc1ccc(NC(=O)c2ccccc2SC)cc1 | 3.16 µM [falling, full curve] | –
21 | COc1cccc(OC)c1C(=O)Nc1ccc2c(c1)n(C)c(=O)n2C | 14.1 µM [rising, partial curve, poor fit] | –

From compound 1 to 4, as listed above:
Row | Structure (SMILES) | AC50 [1] | AC50 [2]
1 | Cc1c(NC(=O)CSc2nnc(-c3ccncc3)o2)c(=O)n(-c2ccccc2)n1C | 10 µM [rising, partial curve, poor fit] | –
2 | CC(C)(C)c1ccc(-c2nnc(SCC(=O)Nc3sc4c(c3C#N)CCCC4)o2)cc1 | 5.8 µM [rising, full curve, poor fit] | –
3 | CCOC(=O)/C(C#N)=C/c1cn(CCOc2ccc(OC)cc2)c2ccccc12 | 0.103 µM [rising, full curve, poor fit] | –
4 | Cc1ccc(C(=O)N2CC(=O)Nc3ccc(F)cc3C2c2ccccc2)cc1 (centres undefined) | 7.08 µM [falling, partial curve, poor fit] | –

Further structures.

Row | Structure (SMILES) | AC50 [1] | AC50 [2]
22 | COc1ccc(OC)c(NS(=O)(=O)c2ccc(N3CCCC3=O)cc2)c1 | 11.2 µM [rising, partial curve, poor fit] | 11.2 µM [falling, partial curve]
23 | Nc1ccccc1NC1CCCCC1 | 12.6 µM [falling, partial curve, poor fit] | –
24 | CC(CCc1ccccc1)OS(N)(=O)=O (centres undefined) | 8.91 µM [rising, single point] | –
25 | O=C(CSc1n[nH]c(-c2ccncc2)n1)c1ccccc1 | 16.4 µM [falling, single point] | –
26 | CCOC(=O)c1c(NC(=O)CCS(=O)(=O)c2ccccc2)sc2c1CCN(C(C)C)C2 | 35.5 µM [falling, single point] | –
27 | CCN1C(=O)/C(=C2/Sc3ccccc3N2CC)S/C1=N\c1ncn[nH]1 | 12.6 µM [falling, partial curve, poor fit] | –
28 | Cc1cccc(-n2c(O)c(C=Nc3ccc(O)cc3)c3ccccc3c2=O)n1 | 18.4 µM [rising, partial curve] | –
29 | COc1ccc(COc2cccc3ccc(C)nc23)cc1F | 3.16 µM [rising, partial curve, poor fit] | –
30 | CC1CCN(c2ncnc3c2cnn3Cc2ccc(Cl)cc2)CC1 | 2.51 µM [rising, partial curve, poor fit] | –
31 | COc1cc(/C=C2\SC(=S)NC2=O)ccc1OS(=O)(=O)c1ccccc1 | 32.6 µM [falling, single point] | –
32 | O=C(CN1CCN(S(=O)(=O)c2ccc(F)cc2)CC1)Nc1ccnn1C1CCCC1 | 18.4 µM [falling, single point] | –
33 | S=C(NCc1ccncc1)Nc1ccc(Br)cc1Cl | 35.5 µM [falling, single point] | 17.8 µM [rising, single point]
34 | c1ccc(-c2nn3nnnc3c3ccccc23)cc1 | 20.6 µM [rising, partial curve] | –
35 | CCOc1ccc(CN2CCN(C3CCSCC3)CC2CCO)cc1 (centres undefined) | 2.24 µM [rising, partial curve] | –
36 | CCOC(=O)[C@H]1[C@H]2COc3ccc(Br)cc3[C@@H]2N2C(=O)c3ccc(F)cc3NC(=O)[C@@]12C | 29.1 µM [falling, partial curve, poor fit] | –
37 | Cc1ccc(CNC(=O)CCn2cc(-c3ccc(F)cc3)nc2-c2ccncc2)cc1 | 29.1 µM [falling, single point] | –
38 | CCOC(=O)Cn1c(=O)oc2cc(S(=O)(=O)Nc3ccc(N(CC)CC)cc3C)ccc21 | 29.1 µM [falling, single point] | –
39 | Cc1nnc(SCc2nnc(-c3ccccc3Br)o2)n1-c1ccccc1 | 32.6 µM [falling, partial curve, poor fit] | –
40 | CCCn1c(C)cc(C(=O)COC(=O)c2c(C)nn(-c3ccccc3)c2C)c1C | 0.0058 µM [falling, full curve, poor fit] | –
41 | CC1(C)Cc2c(sc3c2c(=N)n(Cc2ccco2)c(=O)n3CC(=O)Nc2ccc(Cl)cc2)CO1 | 32.6 µM [falling, single point] | –
42 | CCN(CC(=O)Nc1ccc(NC(C)=O)cc1)C(=O)CCCN1C(=O)c2ccccc2C1=O | 0.517 µM [rising, partial curve, poor fit] | –

Row | Structure (SMILES) | AC50 [1] | AC50 [2]
43 | O=[N+]([O-])c1ccc(Sc2nnnn2-c2ccccc2)nc1 | 7.08 µM [falling, partial curve, poor fit] | 6.31 µM [falling, single point]
44 | Cc1nn(C)c(C(=O)NNC(=S)NC2CCCCC2)c1Br | 31.6 µM [falling, single point] | –
45 | Cc1nnc(-c2cccc(Br)c2)c2cn(-c3ccccc3Cl)nc12 | 2.51 µM [falling, partial curve, poor fit] | –
46 | c1ccc(CN2CCN(c3nc(-c4ccccn4)nc4ccccc34)CC2)cc1 | 6.31 µM [rising, single point] | –
47 | Cc1ccccc1OCC(=O)N1N=C(C(F)(F)F)CC1(O)C(C)(C)C (centres undefined) | 29.1 µM [rising, single point] | 25.9 µM [falling, partial curve, poor fit]
48 | COc1ccccc1Oc1ccc(NC(=O)c2ccccc2C)cc1 | 1.26 µM [falling, partial curve, poor fit] | –
49 | COc1ccccc1-c1cc(C(=O)NCc2ccccc2)no1 | 3.16 µM [falling, full curve] | –
50 | CC(=O)N/N=C/c1ccccc1OCCOc1cccc(C)c1 | 17.8 µM [rising, partial curve, poor fit] | –
51 | O=C(O)Cc1sc(N/N=C\c2ccncc2)nc1-c1ccccc1 | 7.08 µM [falling, partial curve] | –
52 | O=C(CC1S/C(=N/N=C/c2cccnc2)NC1=O)Nc1ccccc1 (centres undefined) | 12.6 µM [falling, partial curve] | –
53 | Cc1nn(-c2ccccc2)c2nc3c(cc12)C(=O)CCC3 | 6.51 µM [falling, partial curve] | 3.66 µM [rising, full curve, poor fit]
54 | COC(=O)N1CCN(c2ccc(Cl)c(Cl)c2)CC1 | 29.1 µM [rising, single point] | –
55 | COc1cccc(C=Nc2ccc3c(c2)CCC3)c1O | 14.1 µM [falling, partial curve, poor fit] | –
56 | CCOC(=O)c1[nH]cnc1C(=O)Nc1ccc(F)cc1 | 11.2 µM [falling, single point] | –
57 | COc1ccc(-c2nsc3c(N4CCCCC4)ncnc23)cc1 | 0.282 µM [rising, full curve, poor fit] | –
58 | CCOC(=O)C(C)n1cnc2c(nnn2Cc2ccc(C)cc2)c1=O (centres undefined) | 20.6 µM [rising, partial curve] | –
59 | CC(C)(C)C(=O)Nc1cccc(-c2nc3ccccc3[nH]2)c1 | 16.4 µM [falling, partial curve] | –
60 | COc1ccc(Nc2ncnc3sc(-c4ccccc4)cc23)cc1OC | 6.51 µM [falling, partial curve, poor fit] | –
61 | O=C(Cc1ccc(S(=O)(=O)N2CCCC2)s1)NC1CCCCCC1 | 0.206 µM [rising, full curve, poor fit] | –
62 | COc1ccc2[nH]cc(/C=C/c3cc[n+](C)cc3)c2c1 | 4.47 µM [falling, full curve, poor fit] | 3.16 µM [rising, full curve, poor fit]
